{"source": "patent EP0639202B1", "about": "(COR THERAPEUTICS, INC., priority 1992, dated 1993)", "key": {"[1]": {"experiment": "general procedure: Boc solid-phase peptide synthesis; pMBHA resin", "conditions": "whole synthesis, scale 0.5 mmol"}, "[2]": {"experiment": "general procedure: Boc solid-phase peptide synthesis; pMBHA resin (0.72 meq/g); PAM-Gly resin (0.6 meq/g)", "conditions": "whole synthesis, scale of the general procedure One-half mmol"}, "[3]": {"experiment": "general procedure: Boc solid-phase peptide synthesis; PAM-Gly resin", "conditions": "whole synthesis, scale 0.5 mmol"}}, "data": [{"substance": "G-C-G-K-G-D-W-P-C-A-NH2 (GCGKGDWPCA)", "values": [{"measurement": "crude mass", "setting": "[1]", "result": 370, "unit": "mg"}, {"measurement": "final HPLC purity", "setting": "[2]", "result": "minimum purity of 90%"}]}, {"substance": "[E^28L^41C^64]barbourin (28-73):E-C-A-D-G-L-C-C-D-O-CRFLKKGTVCRVAKGDWNDDTCTG-O-S-C-D-C-P-R-N-G-L-Y-G", "values": [{"measurement": "isolated mass", "setting": "[3]", "result": 1.6, "unit": "mg"}]}, {"substance": "cyclic form of Mpr-L-homoarginine-Gly-Asp-Trp-Pro-Cys-NH2 • acetate polypeptide (I)", "values": [{"measurement": "final purity (method not given)", "setting": "[2]; HPLC, acetate", "result": "greater than 95%"}]}]}
